Some peptides are written in HELM: one residue between dots, names in brackets for other building blocks, links after the first $.

Here are results for five substances from US20170362283A1 (UNIVERSITEIT UTRECHT HOLDING B.V., priority 2015, published 2017).

This series can be described thus: general procedure: peptide synthesis; BOP, DiPEA.

The substance Boc-Nisin [1-11]Lys(Boc)-OH yielded a step yield (late stage modification step) of 57% yield.
On to “PEPTIDE1{I.[Dhb].[D-Ala_Lan].I.[Dha].L.C.[D-Abu_MeLan].P.G.C.K.[NHFarnesyl]}$PEPTIDE1,PEPTIDE1,3:R3-7:R3|PEPTIDE1,PEPTIDE1,8:R3-11:R3$$$V2.0”, for which, for the setting “lipidation step”, the step yield is listed as 45%.
As for “PEPTIDE1{I.[Dhb].[D-Ala_Lan].I.[Dha].L.C.[D-Abu_MeLan].P.G.C.K.[NHC14]}$PEPTIDE1,PEPTIDE1,3:R3-7:R3|PEPTIDE1,PEPTIDE1,8:R3-11:R3$$$V2.0”, the step yield (lipidation step) is reported as 31%.
Still for that read-out and setting: under “PEPTIDE1{I.[Dhb].[D-Ala_Lan].I.[Dha].L.C.[D-Abu_MeLan].P.G.C.K.[NHC10]}$PEPTIDE1,PEPTIDE1,3:R3-7:R3|PEPTIDE1,PEPTIDE1,8:R3-11:R3$$$V2.0” stands 45%; under “PEPTIDE1{I.[Dhb].[D-Ala_Lan].I.[Dha].L.C.[D-Abu_MeLan].P.G.C.[AcLys].[NHC12]}$PEPTIDE1,PEPTIDE1,3:R3-7:R3|PEPTIDE1,PEPTIDE1,8:R3-11:R3$$$V2.0”, 36%.
